Results taken from US8722690B2, “Mesoionic pesticides” (E I du Pont de Nemours and Company, priority 2009, dated 2014).
Structures can show the parent of a compound that is named as a salt. Where two headings read alike, the source gives them in different places. Some results were stated once for a whole list of compounds, not compound by compound. At least one compound was matched to its structure with a doubt left.

What was measured:
Format in all cases: in vivo
[1] = system: fall armyworm (Spodoptera frugiperda); assay: Test B: control of fall armyworm on maize plant, foliar spray; settings: very good to excellent levels of control efficacy
[2] = system: potato leafhopper (Empoasca fabae); settings: 6 days, Soleil bean plant, very good to excellent levels of control efficacy
[3] = system: cotton melon aphid (Aphis gossypii); assay: Test D: control of cotton melon aphid on cotton plant, contact and/or systemic
Text: For evaluating control of cotton melon aphid (Aphis gossypii) through contact and/or systemic means, the test unit consisted of a small open container with a 6-7-day-old cotton plant inside. This was pre-infested with 30-40 insects on a piece of leaf according to the cut-leaf method described for Test C, and the soil of the test unit was covered with a layer of sand.
Test compounds were formulated and sprayed at 50 ppm and/or 10 ppm as described for Test C. The applications were replicated three times. After spraying, the test units were maintained in a growth chamber and then visually rated as described for Test C.

[4] = system: green peach aphid (Myzus persicae); settings: 6 days, radish plant
Text: For evaluating control of green peach aphid (Myzus persicae) through contact and/or systemic means, the test unit consisted of a small open container with a 12-15-day-old radish plant inside. This was pre-infested by placing on a leaf of the test plant 30-40 aphids on a piece of leaf excised from a culture plant (cut-leaf method). The aphids moved onto the test plant as the leaf piece desiccated. After pre-infestation, the soil of the test unit was covered with a layer of sand.
Test compounds were formulated and sprayed at 50 ppm and/or 10 ppm as described for Test A. The applications were replicated three times. After spraying of the formulated test compound, each test unit was allowed to dry for 1 h and then a black, screened cap was placed on top. The test units were held for 6 days in a growth chamber at 19-21° C. and 50-70% relative humidity. Each test unit was then visually assessed for insect mortality.

[5] = system: corn planthopper (Peregrinus maidis); settings: 6 days, maize plant, very good to excellent levels of control efficacy
Experimental: For evaluating control of corn planthopper (Peregrinus maidis) through contact and/or systemic means, the test unit consisted of a small open container with a 3-4-day-old maize plant (spike) inside. White sand was added to the top of the soil prior to application. Test compounds were formulated and sprayed at 50 ppm and/or 10 ppm, and replicated three times as described for Test A. After spraying, the test units were allowed to dry for 1 h before they were post-infested with ˜15-20 nymphs (18 to 21 day old) by sprinkling them onto the sand with a salt shaker. A black, screened cap was placed on the top of each test unit, and the test units were held for 6 days in a growth chamber at 22-24° C. and 50-70% relative humidity. Each test unit was then visually assessed for insect mortality.

[6] = system: diamondback moth (Plutella xylostella); assay: Test A: control of diamondback moth on radish plant, foliar spray; settings: 6 days, very good to excellent levels of control efficacy

Row | SMILES | control efficacy: feeding damage (40% or less feeding damage and/or 100% mortality) ([1]; sprayed at 10 ppm) | control efficacy: feeding damage (40% or less feeding damage and/or 100% mortality) ([1]; sprayed at 50 ppm) | control efficacy: mortality ([2]; sprayed at 10 ppm) | control efficacy: mortality ([2]; sprayed at 50 ppm) | mortality ([3]; sprayed at 10 ppm) | mortality ([3]; sprayed at 50 ppm) | mortality ([4]; sprayed at 50 ppm) | control efficacy: mortality ([5]; sprayed at 10 ppm) | control efficacy: mortality ([5]; sprayed at 50 ppm) | control efficacy: feeding damage (40% or less feeding damage and/or 100% mortality) ([6]; sprayed at 10 ppm) | control efficacy: feeding damage (40% or less feeding damage and/or 100% mortality) ([6]; sprayed at 50 ppm) | mortality ([4]; sprayed at 10 ppm)
1 | Cc1cccn2c(=O)c(-c3cccc(Cl)c3F)c([O-])[n+](Cc3cnc(Cl)s3)c12 [Compound 60, 3-(3-chloro-2-fluorophenyl)-1-[(2-chloro-5-thiazolyl)methyl]-2-hydroxy-9-methyl-4-oxo-4H-pyrido[1,2-a]pyrimidinium inner salt] | ≤ 40% | ≤ 40% | ≥ 80% | ≥ 80% | at least 80% | at least 80% | at least 80% | ≥ 80% | ≥ 80% | ≤ 40% | ≤ 40% | –
2 | COc1cccc(-c2c([O-])[n+](Cc3cnc(Cl)s3)c3c(C)cccn3c2=O)c1 [Compound 62, 1-[(2-chloro-5-thiazolyl)methyl]-2-hydroxy-3-(3-methoxyphenyl)-9-methyl-4-oxo-4H-pyrido[1,2-a]pyrimidinium inner salt] | ≤ 40% | ≤ 40% | ≥ 80% | ≥ 80% | at least 80% | at least 80% | at least 80% | ≥ 80% | ≥ 80% | ≤ 40% | ≤ 40% | at least 80%
3 | Cc1ncc(C[n+]2c([O-])c(-c3cccc(C(F)(F)F)c3)c(=O)n3cccc(C)c32)s1 [Compound 74, 2-hydroxy-9-methyl-1-[(2-methyl-5-thiazolyl)methyl]-4-oxo-3-[3-(trifluoromethyl)phenyl]-4H-pyrido[1,2-a]pyrimidinium inner salt] | – | ≤ 40% | – | ≥ 80% | – | at least 80% | at least 80% | ≥ 80% | ≥ 80% | ≤ 40% | ≤ 40% | at least 80%
4 | Cc1cccn2c(=O)c(-c3cc(Br)cc(C(F)(F)F)c3)c([O-])[n+](Cc3cnc(Cl)s3)c12 [Compound 79, 3-[3-bromo-5-(trifluoromethyl)phenyl]-1-[(2-chloro-5-thiazolyl)methyl]-2-hydroxy-9-methyl-4-oxo-4H-pyrido[1,2-a]pyrimidinium inner salt] | ≤ 40% | ≤ 40% | ≥ 80% | ≥ 80% | at least 80% | at least 80% | at least 80% | ≥ 80% | ≥ 80% | ≤ 40% | ≤ 40% | at least 80%
5 | Cc1cccn2c(=O)c(-c3cc(Br)cc(OC(F)(F)F)c3)c([O-])[n+](Cc3cnc(Cl)s3)c12 [Compound 80, 3-[3-bromo-5-(trifluoromethoxy)phenyl]-1-[(2-chloro-5-thiazolyl)methyl]-2-hydroxy-9-methyl-4-oxo-4H-pyrido[1,2-a]pyrimidinium inner salt] | ≤ 40% | ≤ 40% | ≥ 80% | ≥ 80% | – | at least 80% | at least 80% | ≥ 80% | ≥ 80% | ≤ 40% | ≤ 40% | at least 80%
